Results are given in words; binding and its absence hold for the method and conditions named. In cells and extracts the contact can be indirect. Some results given as binding are weak or reduced against the parent protein; the word gives no strength.
Target: FLAG-TM9SF4 (UniProt Q92544)
Assay: co-IP; lysates of CRC cells transfected with FLAG-TM9SF4; IP/Co-IP Kit (Thermo Fisher #88804); lysate with primary antibody at 4 °C for 12 h, then flag beads for 1.5 h at room temperature; western blot

By UniProt entry, the sequences of proteins in these tests, tags left out. Residues count along the entry.
UniProt Q92544, residues 24-642: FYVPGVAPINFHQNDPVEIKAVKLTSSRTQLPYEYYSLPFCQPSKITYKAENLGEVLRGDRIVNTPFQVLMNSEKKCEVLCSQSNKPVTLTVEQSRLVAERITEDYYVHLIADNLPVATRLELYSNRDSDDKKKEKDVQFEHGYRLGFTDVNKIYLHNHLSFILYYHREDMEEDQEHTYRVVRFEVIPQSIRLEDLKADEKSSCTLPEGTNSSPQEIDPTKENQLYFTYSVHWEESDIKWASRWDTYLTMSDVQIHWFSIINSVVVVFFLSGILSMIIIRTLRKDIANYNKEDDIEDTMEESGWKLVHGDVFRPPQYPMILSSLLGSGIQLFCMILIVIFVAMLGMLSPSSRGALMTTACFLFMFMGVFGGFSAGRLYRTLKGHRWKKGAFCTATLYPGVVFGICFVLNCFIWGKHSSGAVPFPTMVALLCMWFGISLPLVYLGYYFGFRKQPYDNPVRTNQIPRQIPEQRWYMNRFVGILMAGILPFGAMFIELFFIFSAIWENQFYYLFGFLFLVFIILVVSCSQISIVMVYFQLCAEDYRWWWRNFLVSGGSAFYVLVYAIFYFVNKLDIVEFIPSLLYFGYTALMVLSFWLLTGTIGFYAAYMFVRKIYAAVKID
UniProt O60568, residues 25-738: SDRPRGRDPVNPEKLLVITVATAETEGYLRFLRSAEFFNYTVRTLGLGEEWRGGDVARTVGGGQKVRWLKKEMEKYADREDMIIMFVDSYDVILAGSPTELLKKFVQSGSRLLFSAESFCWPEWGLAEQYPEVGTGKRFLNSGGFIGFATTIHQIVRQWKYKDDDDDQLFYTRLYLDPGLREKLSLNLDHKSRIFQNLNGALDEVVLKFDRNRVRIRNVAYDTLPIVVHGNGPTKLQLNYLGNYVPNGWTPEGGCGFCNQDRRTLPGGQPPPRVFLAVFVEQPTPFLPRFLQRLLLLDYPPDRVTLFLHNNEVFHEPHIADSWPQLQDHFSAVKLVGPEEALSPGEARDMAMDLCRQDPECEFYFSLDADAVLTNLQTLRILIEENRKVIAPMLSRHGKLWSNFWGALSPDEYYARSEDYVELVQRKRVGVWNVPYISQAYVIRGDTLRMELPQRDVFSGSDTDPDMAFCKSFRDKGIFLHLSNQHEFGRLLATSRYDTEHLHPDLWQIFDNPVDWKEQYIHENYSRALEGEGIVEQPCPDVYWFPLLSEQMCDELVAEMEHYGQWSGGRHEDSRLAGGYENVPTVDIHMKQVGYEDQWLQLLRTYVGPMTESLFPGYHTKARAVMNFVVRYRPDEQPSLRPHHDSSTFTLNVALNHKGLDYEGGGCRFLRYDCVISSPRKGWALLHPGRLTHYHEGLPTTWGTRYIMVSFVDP

binding: binds
Substance: PLOD3 (from UniProt O60568 25-738)

Reference: PMC11937244
